Results deposited as PubChem BioAssay AID504804 (Drosophila RNAi Screening Center, 2011).
Test: 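Knock-downs shielding fly cells from apoptosis caused by DNA damage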 (primary screen). Cell system: Drosophila Kc cells. Reagent: long dsRNA against Drosophila genes, 0.5 µg dsRNA per well. Duration: 96 h (48 h knock-down, then 48 h drug). Treatment: doxorubicin 5 µg/ml for 48 h, added 48 h after dsRNA. Read-out: 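Viability measured as cellular ATP by luminescence after 48 h knock-down then 48 h doxorubicin at 5 µg/ml; unnormalised plate counts for each replicate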. Scale: raw ATP luminescence: higher = more viable cells, protection from doxorubicin. Rule for the call: 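z-score of 2 or more over plate mean in both duplicates, retained only when retests and separate dsRNAs confirm the protection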.
The deposit covers about 19,000 reagents; shown is a random part of those that have a named target and a result. Of all reagents, 47 (0.25%) were called active. 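Signals are raw, not normalised; exact z-scores behind calls not deposited; actives needed confirmation, so some wells reaching 2 SD are inactive.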

target gene	dsRNA	SD above plate mean	raw ATP luminescence, replicate 1	raw ATP luminescence, replicate 2	activity call
daw (dawdle)	DRSC00479		1.08e5	89813	inactive
InR (Insulin-like receptor)	DRSC16717		35910	44980	inactive
CG13311	DRSC09982		62157	75727	inactive
CG32109	DRSC09816		77507	68390	inactive
CG33506	DRSC05981		70060	71407	inactive
CG30496	DRSC06805		69277	45913	inactive
CG43394	DRSC01013		2.62e5	2.57e5	inactive
CheA84a (Chemosensory protein A 84a)	DRSC12669		71193	52527	inactive
CG17570	DRSC01770		59520	64990	inactive
CG17570	DRSC03754		65610	64607	inactive
CG40948 (retired record)	DRSC20944		2.06e5	2.38e5	inactive
klar (klarsicht)	DRSC08718		71653	72320	inactive
TotZ (Turandot Z)	DRSC13450		1.68e5	1.90e5	inactive
cdi (center divider)	DRSC16922		57690	43250	inactive
CG32846	DRSC08012		1.91e5	1.33e5	inactive
CG42780	DRSC17514		2.90e5	1.88e5	inactive
Muc12Ea (Mucin 12Ea)	DRSC19937		3.52e5	3.41e5	inactive
CheA7a (Chemosensory protein A 7a)	DRSC17965		58410	69270	inactive
Polr2L (RNA polymerase II, I and III subunit L)	DRSC14630		41590	40570	inactive
CG7849	DRSC04895		33167	44237	inactive
can (cannonball)	DRSC10664		2.12e5	1.93e5	inactive
RSG7 (Regulator of G-protein signaling 7)	DRSC20274		3.81e5	3.73e5	inactive
CREG (Cellular Repressor of E1A-stimulated Genes)	DRSC16595		59310	76970	inactive
CG14095	DRSC10098		74627	71787	inactive
CG6793	DRSC10714		86267	75490	inactive

Just “raw ATP luminescence, replicate 1” (10 entries from above):
daw (dawdle) [DRSC00479]: 1.08e5
InR (Insulin-like receptor) [DRSC16717]: 35910
CG13311 [DRSC09982]: 62157
CG32109 [DRSC09816]: 77507
CG33506 [DRSC05981]: 70060
CG30496 [DRSC06805]: 69277
CG43394 [DRSC01013]: 2.62e5
CheA84a (Chemosensory protein A 84a) [DRSC12669]: 71193
CG17570 [DRSC01770]: 59520
CG17570 [DRSC03754]: 65610

The list goes on:
target gene	dsRNA	SD above plate mean	raw ATP luminescence, replicate 1	raw ATP luminescence, replicate 2	activity call
Smyd4-1 (SET and MYND domain containing, class 4, member 1)	DRSC06785		50657	45323	inactive
dnd (dead end)	DRSC16064		61140	78450	inactive
toc (toucan)	DRSC00169		3.20e5	2.69e5	inactive
toc (toucan)	DRSC00171		2.71e5	2.82e5	inactive
toc (toucan)	DRSC00842		1.19e5	71587	inactive
alpha-Man-IIb (alpha-Mannosidase class II b)	DRSC16898		51843	52823	inactive
COX7AL2 (Cytochrome c oxidase subunit 7A-like 2)	DRSC00099		2.34e5	2.70e5	inactive
La (La autoantigen-like)	DRSC03358		47973	66747	inactive
CG5543	DRSC04511		63020	79867	inactive
CG40006	DRSC03787		85403	67350	inactive
CG40006	DRSC03809		69020	61327	inactive
CG40006	DRSC03814		74170	61667	inactive
CG40006	DRSC03817		68807	62120	inactive
Pfas (Phosphoribosylformylglycinamidine synthase)	DRSC03480		1.06e5	65277	inactive
mthl1 (methuselah-like 1)	DRSC19905		4.03e5	3.00e5	inactive
psq (pipsqueak)	DRSC07668		20160	20180	inactive
CG1236	DRSC12203		46680	15607	inactive
nrv1 (nervana 1)	DRSC03382	at least 2 SD above plate mean	1.51e5	1.15e5	active
Mpc1	DRSC14770		78217	53677	inactive
Cht11 (Chitinase 11)	DRSC18270		42390	43990	inactive
anne (anne boleyn)	DRSC17103		1.42e5	2.08e5	inactive
CG30440	DRSC04775		95470	1.09e5	inactive
CG30440	DRSC04845		47347	62977	inactive
CG30440	DRSC04855		38660	50787	inactive
Muc91C (Mucin 91C)	DRSC16297		55990	68000	inactive
CG31102	DRSC14260		78450	69300	inactive
CG10307	DRSC04057		79990	66820	inactive
CG9360	DRSC20180		3.23e5	2.78e5	inactive
CG5011	DRSC00039		2.71e5	2.96e5	inactive
CG5011	DRSC00674		92657	57937	inactive
CG13587	DRSC04223		47360	45337	inactive
CG13068	DRSC09951		51113	31677	inactive
